Data: paper PMC9582194 (Cell Reports. Physical Science, 2022)
Plain letter strings leave the end groups untold. Strings that start with PEPTIDE1 are HELM notation: dots part the residues, brackets hold end groups and non-standard residues.

Assay: general procedure: Fmoc solid-phase peptide synthesis; ChemMatrix Rink amide resin
Conditions: whole synthesis, scale of the general procedure 0.1 mmol

Substance	difficulty met	outcome
PEPTIDE1{[ac].L.E.K.E.A.E.E.L.V.V.E.E.D.V.L.E.E.E.I.E.Q.L.E.E.R.N.Y.A.L.R.K.E.I.E.D.L.Q.K.Q.L.E.K.L.[am]}$$$$V2.0	HW2 and HW3 producing poor yields	
PEPTIDE1{[ac].L.A.R.E.N.E.E.L.E.K.E.A.E.E.L.V.V.E.E.D.V.L.E.E.E.I.E.Q.L.E.E.R.N.Y.A.L.R.K.E.I.E.D.L.Q.K.Q.L.E.K.L.[am]}$$$$V2.0	HW2 and HW3 producing poor yields	
MASLEQRAEELARENEELEKEAEELVVEEDVLEEEIEQLEERNYALRKEIEDLQKQLEKLGAPHHHHHH		HW1 proved to be inaccessible via solid-phase peptide synthesis (SPPS) using standard techniques
